{"source": "patent US5665861A", "about": "(HaemoPep Pharma GmbH, priority 1987, dated 1997)", "assay": "Boc solid-phase peptide synthesis; Merrifield", "details": "whole synthesis, scale of the general procedure 1.22 g of resin", "note": "Some peptides are written in HELM: one residue between dots, names in brackets for other building blocks, links after the first $.", "data": [{"substance": "PEPTIDE1{T.A.P.R.S.L.R.R.S.S.C.F.G.G.R.M.D.R.I.G.A.Q.S.G.L.G.C.N.S.F.R.Y}$PEPTIDE1,PEPTIDE1,11:R3-27:R3$$$V2.0", "values": [{"measurement": "final purity (method not given)", "result": "more than 98%"}]}]}
